Measurements from article PMC13545989.

Tests used:
Experiment in all cases: co-IP; FLAG purification of Miro1/FP/FLAG/I3-01 synthetic cargo from hTERT RPE-1 cell lines co-expressing TRAK/mScarlet variants; immunoblot of the associated motor-adaptor components (kinesin, dynein, dynactin); also done after kinesin RNAi (fig. S4E)
[1] = biological target: T1, TRAK1 E242R (mScarlet fusion) (UniProt Q9UPV9)
T1 sequence: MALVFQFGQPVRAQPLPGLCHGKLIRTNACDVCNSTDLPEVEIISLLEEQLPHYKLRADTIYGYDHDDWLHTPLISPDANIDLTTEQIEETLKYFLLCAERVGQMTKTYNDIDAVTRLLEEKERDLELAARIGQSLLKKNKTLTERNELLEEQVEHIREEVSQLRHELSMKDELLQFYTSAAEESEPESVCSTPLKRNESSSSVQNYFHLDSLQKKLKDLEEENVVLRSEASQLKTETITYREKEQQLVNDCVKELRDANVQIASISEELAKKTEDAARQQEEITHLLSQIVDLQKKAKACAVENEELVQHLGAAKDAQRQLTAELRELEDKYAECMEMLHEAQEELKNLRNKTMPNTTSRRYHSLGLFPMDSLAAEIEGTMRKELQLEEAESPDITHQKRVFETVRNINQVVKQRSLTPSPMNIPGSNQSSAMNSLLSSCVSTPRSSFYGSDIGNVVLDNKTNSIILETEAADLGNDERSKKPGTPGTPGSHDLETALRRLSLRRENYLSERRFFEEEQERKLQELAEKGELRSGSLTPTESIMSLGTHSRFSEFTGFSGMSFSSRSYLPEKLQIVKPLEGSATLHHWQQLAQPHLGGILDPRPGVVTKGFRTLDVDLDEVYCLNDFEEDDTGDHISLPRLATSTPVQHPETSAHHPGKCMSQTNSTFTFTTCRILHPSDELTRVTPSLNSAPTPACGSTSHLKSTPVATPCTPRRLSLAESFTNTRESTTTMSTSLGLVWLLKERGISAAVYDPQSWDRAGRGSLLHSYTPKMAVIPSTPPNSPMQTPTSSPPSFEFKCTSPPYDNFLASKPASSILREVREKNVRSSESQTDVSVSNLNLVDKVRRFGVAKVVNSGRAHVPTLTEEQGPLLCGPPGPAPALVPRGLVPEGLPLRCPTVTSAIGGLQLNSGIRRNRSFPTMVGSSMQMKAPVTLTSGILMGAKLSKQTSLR

[2] = biological target: T2, TRAK2 S84A (mScarlet fusion) (UniProt O60296)
T2 sequence: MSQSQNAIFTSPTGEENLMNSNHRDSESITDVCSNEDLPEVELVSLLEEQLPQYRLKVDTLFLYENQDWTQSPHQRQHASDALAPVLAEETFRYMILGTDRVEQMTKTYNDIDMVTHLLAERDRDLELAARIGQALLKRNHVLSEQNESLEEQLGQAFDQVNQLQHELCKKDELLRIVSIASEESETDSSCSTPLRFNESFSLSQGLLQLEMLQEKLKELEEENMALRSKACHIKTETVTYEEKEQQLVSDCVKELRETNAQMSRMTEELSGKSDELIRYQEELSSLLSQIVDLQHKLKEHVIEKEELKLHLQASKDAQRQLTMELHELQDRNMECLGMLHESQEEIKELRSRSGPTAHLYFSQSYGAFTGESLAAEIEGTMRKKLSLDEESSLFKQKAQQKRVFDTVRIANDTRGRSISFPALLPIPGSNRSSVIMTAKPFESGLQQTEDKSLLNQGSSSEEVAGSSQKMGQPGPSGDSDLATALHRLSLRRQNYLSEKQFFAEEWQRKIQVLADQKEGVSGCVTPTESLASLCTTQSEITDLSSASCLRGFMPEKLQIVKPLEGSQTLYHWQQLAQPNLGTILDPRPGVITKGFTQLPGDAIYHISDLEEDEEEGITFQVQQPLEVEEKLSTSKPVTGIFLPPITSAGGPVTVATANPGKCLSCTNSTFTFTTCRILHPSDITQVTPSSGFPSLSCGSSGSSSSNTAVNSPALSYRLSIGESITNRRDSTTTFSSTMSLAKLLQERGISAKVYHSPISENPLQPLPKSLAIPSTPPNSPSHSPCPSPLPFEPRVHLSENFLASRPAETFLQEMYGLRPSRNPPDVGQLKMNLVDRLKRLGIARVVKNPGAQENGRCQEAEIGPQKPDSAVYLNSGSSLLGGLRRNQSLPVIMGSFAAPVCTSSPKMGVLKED

[3] = biological target: T3, TRAK1 DRH mutant (L92A, F95A; mScarlet fusion) (UniProt Q9UPV9)
T3 sequence: T1 sequence with L92A, F95A, R242E

binding [1]: binds | binding [2]: binds | binding [3]: binds
Substance: kinesin-1 (human (endogenous in hTERT RPE-1))

Residue numbers refer to the chain shown, from its start. Results are given in words; binding and its absence hold for the method and conditions named. In cells and extracts the contact can be indirect. Binding calls can cover weak binding; strength is not graded here. Tags and fused reporters may be left off the sequences shown.
